Source: the supplement of paper PMC12024529
The list shows a part of the results. Part of the spread comes from offsets between plates or batches.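 HEK293 lines stably express B-domain-deleted factor VIII fused to Gaussia luciferase, wild type or a misfolding-prone missense mutant. Scores equal triplicate-well mean luminescence minus DMSO mean, divided by DMSO standard deviation; scores of 2 or higher are hits. Low scores may indicate reduced secretion or worse cell viability.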

Columns and labels:
HEK293 WT BDD-FVIII-Gluc = test: secreted FVIII-Gluc luciferase Z-score vs DMSO control; higher = more FVIII-Gluc secretion; details: 5 µM; 24 h
[1] = test system: HEK293 p.N1941S BDD-FVIII-Gluc; test: as above; details: 5 µM; 24 h

| SMILES | secreted FVIII-Gluc luciferase Z-score (HEK293 WT BDD-FVIII-Gluc) | secreted FVIII-Gluc luciferase Z-score [1] |
| --- | --- | --- |
| NNC(=O)c1ccncc1 [Isoniazid (Tubizid)] | inactive: -1.21 | inactive: 0.351 |
| C[N+](C)(C)CCOC(N)=O [Carbachol] | inactive: -3.98 | active: 2.02 |
| O=C(O)c1cccnc1Nc1cccc(C(F)(F)F)c1 [Niflumic acid] | active: 2.11 | inactive: -0.0255 |
| COC(=O)[C@H](Cc1ccccc1)NC(=O)[C@@H](N)CC(=O)O [Aspartame] | inactive: -0.104 | inactive: -1.16 |
| Cc1ccc2c(Cl)cc(Cl)c(O)c2n1 [Chlorquinaldol] | inactive: -1.6 | inactive: -0.574 |
| CN1CCN2c3ncccc3Cc3ccccc3C2C1 (stereo not given) [Mirtazapine (Remeron, Avanza)] | inactive: 1.12 | inactive: 1.6 |
| C[C@]12CCC(=O)C=C1CC[C@@H]1[C@@H]2[C@@H](O)C[C@@]2(C)[C@H]1CC[C@]2(O)C(=O)CO [Hydrocortisone (Cortisol)] | active: 4.12 | active: 4.65 |
| O=C([O-])C(O)[C@H](O)[C@@H](O)[C@H](O)[C@H](O)CO.O=C([O-])C(O)[C@H](O)[C@@H](O)[C@H](O)[C@H](O)CO.[Ca+2] (stereo not given in full) [Calcium Gluceptate] | inactive: 0.184 | inactive: 1.18 |
| CC(=O)[C@H]1CC[C@H]2[C@@H]3C=CC4=CC(=O)CC[C@@]4(C)[C@@H]3CC[C@]12C [Dydrogesterone] | inactive: 1.33 | inactive: 0.529 |
| N[C@@H](Cc1cc(I)c(Oc2ccc(O)c(I)c2)c(I)c1)C(=O)O [Liothyronine Sodium] | inactive: 1.25 | inactive: 0.644 |
